A word on the EC50: it is the concentration at which the effect is half-maximal.

The structures appear in SMILES notation.

For this assay, the system named is porcine retinal arteries. Put plainly: small vessel myography of wall tension in isolated retinal artery segments pre-contracted with U-46619. The class given is cell-based. The conditions noted are these: Sus scrofa; best fit to concentration-response curves; arteries pre-contracted with 10^−6 M U-46619; read-out: mean EC50 of vasodilation. How it is done:
Changes in the wall tension of short segments (<2 mm) of porcine retinal arterioles were examined with a small vessel myography system. Pig eyes were obtained from a local abattoir. The pigs were anesthetized with CO2 and put down by exsanguination. All procedures involving animals adhered to the appropriate local and international laws and relevant ethical rules. Only one eye was obtained from each animal for the experiments. Eyes were placed in a 4 °C oxygenated physiological saline solution (PSS) and transported to the laboratory as quickly as possible (within 30 min). […]
The eyes were bisected with a razor blade at the equator and the anterior segment removed. […] The exact length of the vessel segment, once placed in the myography system, was measured by taking a photograph of it through the stereoscope, and then converting the vessel length in pixels into millimeters. The heating unit of the DMT630MA system was then turned on and set to a stable temperature of 37 °C, monitored by a thermal probe inserted into the bathing medium.
The wall tension of the vessel segment was continuously recorded with LabChart Pro (ADInstruments, Oxford, UK). Once the temperature in the bathing medium had reached 37 °C, the preparation was left to stabilize for 30 min and the normalization of wall tension was carried out, taking into account the measured length of the vessel. […]

`CCN[C@H]1C[C@H](C)S(=O)(=O)c2sc(S(N)(=O)=O)cc21` [Compound 2, Dorzolamide, reference compound]: the EC50 is 860 µM.

The values above are taken from PMC6387369, “Carbonic Anhydrase Inhibitors of Different Structures Dilate Pre-Contracted Porcine Retinal Arteries” (International Journal of Molecular Sciences, 2019).
